## Primary screen of a compound library

Sequences of proteins named here, by UniProt entry; tags and fusion partners are left off.
UniProt E9BF75, entry or part of it: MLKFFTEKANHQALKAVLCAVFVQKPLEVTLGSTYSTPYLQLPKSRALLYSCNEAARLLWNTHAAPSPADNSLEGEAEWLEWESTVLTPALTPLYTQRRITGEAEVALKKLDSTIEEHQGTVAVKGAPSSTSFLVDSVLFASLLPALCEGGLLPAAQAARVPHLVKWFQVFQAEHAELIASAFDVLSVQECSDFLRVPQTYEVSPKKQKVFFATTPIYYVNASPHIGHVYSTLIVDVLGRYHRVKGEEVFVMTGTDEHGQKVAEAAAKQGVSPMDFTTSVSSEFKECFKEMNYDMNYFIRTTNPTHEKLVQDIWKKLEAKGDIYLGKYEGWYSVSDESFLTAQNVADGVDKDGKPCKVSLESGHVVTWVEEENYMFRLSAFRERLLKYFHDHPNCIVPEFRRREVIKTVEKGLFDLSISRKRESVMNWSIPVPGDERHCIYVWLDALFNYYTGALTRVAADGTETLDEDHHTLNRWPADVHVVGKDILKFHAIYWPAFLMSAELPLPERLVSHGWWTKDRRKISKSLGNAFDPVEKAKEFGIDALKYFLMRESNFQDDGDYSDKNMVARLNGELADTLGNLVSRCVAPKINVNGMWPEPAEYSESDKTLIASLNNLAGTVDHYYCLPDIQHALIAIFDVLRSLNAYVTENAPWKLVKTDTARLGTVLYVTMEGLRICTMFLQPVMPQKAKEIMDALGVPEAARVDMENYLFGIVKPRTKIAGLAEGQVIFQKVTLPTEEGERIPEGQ

Source: ChEMBL document CHEMBL3988442, “University of Dundee, Small-Polar-MMV Screening Library” (2021).

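Methionyl-tRNA synthetase (putative), Leishmania donovani (UniProt E9BF75). Primary screen of methionyl-tRNA synthetase; the read-out is not stated. The test concentration is not given. The values are filed as inhibition. About 68,000 compounds were tested under these conditions; 0.035% (about 24) showed 50% or more at least once.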

Results are percentages, as filed. How 0% and 100% were set is not recorded. Most values in the screen are low, and negative values occur. This is an unselected part of the compounds tested.

- O=C1CCC2(CCN(c3ncc(F)cn3)CC2)N1CCN1CCCC1 | 7.843%
- O=C(NCCN1CCOC1=O)c1cnc(-c2cccnc2)nc1 | 13.33%
- c1cncc(CN2Cc3nccn3CC(Cn3cncn3)C2)c1 (configuration not stated) | 17.79%
- CC(=O)N1CCC(C(=O)NCCN2CCCC(C)C2)CC1 (configuration not stated) | 8.696%
- CNc1nc(C)c(C(=O)N2CCCCC2CCc2ccc(O)cc2)s1 (configuration not stated) | 12.36%
- CC(C)C(=O)N1CCN(Cc2csc(-c3ncccn3)n2)CC1 | 3.521%
- CCCSCC(=O)N1C[C@@H]2CC[C@H](C1)N(Cc1ccccn1)C2=O | -1.423%
- O=C(C1CCCC1)N1CCCC(c2cccc(-n3ccnc3)n2)C1 (configuration not stated) | 9.176%
- Cc1cc(CN2CC[C@H]3C(=O)N(c4cccnc4)CCO[C@H]3C2)no1 | 9.89%
- COc1ccc2c(c1)C(C(=O)NCCN1CCOC1=O)CC(=O)N2 (configuration not stated) | 3.736%
- Cc1cn(Cc2ccc(F)cc2)nc1N | 12.7%
- Cc1noc(C)c1CNCC1COCc2c(-c3ccoc3)nnn2C1 (configuration not stated) | 17.52%
- COC(=O)Cn1c(C)cc(=O)n2nc(-c3cccs3)nc12 | 6.414%
- COc1cccc(N2Cc3nc(=O)n(C(C)C)n3C2=O)c1 | 14.24%
- O=C(Cn1c(=O)oc2ccccc21)NCC1(O)CCc2ccccc2C1 (configuration not stated) | 8.869%
- O=C(c1cc[nH]n1)N1CCCC(c2cccc(-n3ccnc3)n2)C1 (configuration not stated) | 15.73%
- O=C(O)C1(n2ccc(-c3ccco3)n2)CCN(Cc2cccnc2)CC1 | 11.66%
- Cc1nn(-c2ccccc2)cc1C(=O)N1CCCN2CCCC2C1 (configuration not stated) | 23.08%
- NC(=O)CC1CCCN(c2cncc(OCc3ccccc3)n2)C1 (configuration not stated) | 8.889%
- Cc1noc(C2(C)CCCN(C(=O)c3cccnc3)C2)n1 (configuration not stated) | 6.431%
- Cc1ccc2c(c1)N(C(=O)C1CCCOC1)CCC2 (configuration not stated) | 12.32%
- O=C(c1ccoc1)N1CCCN(CC2CCOc3ccccc3C2)CC1 (configuration not stated) | 12.37%
- CC(C)NC(=O)CC(C)NCc1ccc(F)cc1Cl (configuration not stated) | -2.308%
- Cc1cccc(C(=O)Oc2cc(=O)n3cccc(C)c3n2)c1 | 16.91%
- COCCc1noc(C2CCN(S(=O)(=O)c3cccs3)CC2)n1 | -2.899%
- CN(CCC#N)C(=O)Cn1cnc2c(Br)cccc2c1=O | 5.307%
- OCCOCc1n[nH]c2c1CN(Cc1ccco1)C2 | 11.5%
- CC(C)c1noc(CCCC(=O)NC2CCS(=O)(=O)C2)n1 (configuration not stated) | 16.08%
- CCOCC1CN(C(=O)c2ccoc2C)Cc2cnn(C)c21 (configuration not stated) | 5.753%
- Cc1nnc(CN2CCCC(c3noc(C4CC4)n3)C2)o1 (configuration not stated) | 16.87%

2 of the entries, repeated:

- Cc1cccc(C(=O)Oc2cc(=O)n3cccc(C)c3n2)c1 : 16.91%
- Cc1cc(CN2CC[C@H]3C(=O)N(c4cccnc4)CCO[C@H]3C2)no1 : 9.89%